Laboratory results as given in PubChem BioAssay AID1347426 (Functional Genomics Laboratory (NCATS/FGL), 2020).
Screen size: about 31,000 sequences; about 1,400 (4.5%) were called active.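 The calls were made as follows: active = median seed-adjusted z-score above 1 or below -1; inactive = the rest.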 Some of the results follow.

Assay: Novel Modifiers of Survival Motor Neuron (SMN) Protein: Gene Identification via Genome-wide siRNA Screen;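 also: luminescence tracks full-length SMN protein made from the SMN2 reporter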
Conditions: HEK293T SMN2-luciferase reporter, siRNA knockdown, 72 h; actives lie on both sides
In short: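 HEK293T cells stably carrying an SMN2 promoter/splicing cassette–luciferase reporter were reverse-transfected with 1 pmol siRNA per well (druggable-genome library, 3 siRNAs per gene) and grown 72 h at 37 °C. Luminescence, normalized to negative-control siRNA and log10-transformed, was scored as MAD.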
In the case of GGAGAGUAAGGGUCCUAGATT against LINGO4, the median seed-adjusted z-score is reported as inactive: 0.388. For CUAGUGGGCUGUAUCCUUATT against AMIGO1, the median seed-adjusted z-score was inactive: 0.175. With GAUGAAGAACGGUACCAGATT against EPHA1 the median seed-adjusted z-score was inactive: -0.092. In the case of GGAGCACGAAAGUCAAAGATT against NR3C2, the median seed-adjusted z-score is reported as inactive: -0.0918. For GACUGACUCAUGAUCCAAATT against MAN1A1, the median seed-adjusted z-score was inactive: 0. For GCGUGUUCCCAAUAGUGUATT against OGT, the median seed-adjusted z-score was inactive: 0.411. With GACAAGAUCUUGUAAGCAUTT against USP44 the median seed-adjusted z-score was inactive: 0.374. With UCUGUCUCCUAGAAUCUUATT against ZFP36 the median seed-adjusted z-score was inactive: 0.106. For GGUGAUGAAUUUAGCUUAATT against SERPINI2, the median seed-adjusted z-score was inactive: -0.174. With AGGGAGCAAAUGAACCUGATT against VIP the median seed-adjusted z-score was active: 1.52. In the case of GGAAUGCACCCAGAUCAAATT against TFAP2D, the median seed-adjusted z-score is reported as inactive: 0. In the case of GGCUAUACCUACAAUAUGUTT against TOX3, the median seed-adjusted z-score is reported as inactive: -0.216. For GAAUUUGUAUGAGAGCAUUTT against CYTH3, the median seed-adjusted z-score was inactive: 0.196. In the case of GGGUAUGAGAUUUCACAUUTT against AFAR3, the median seed-adjusted z-score is reported as inactive: 0.0433. For GGAUGGAACUUAUUGGACUTT against AMD1, the median seed-adjusted z-score was inactive: -0.211. With GCAGCACUGUUACUCAGUUTT against GLRA3 the median seed-adjusted z-score was inactive: 0.0585. With GGCUGUACAUCUGGACCAATT against NFKBIE the median seed-adjusted z-score was inactive: -0.452. In the case of GGACUAUCUACAUUCCGGATT against AKT3, the median seed-adjusted z-score is reported as inactive: -0.0936. With GACUUUCGACUUUGAUGAATT against TRUB1 the median seed-adjusted z-score was inactive: 0.561. With GAUCGGCCUGAGUCUAAUATT against SLC15A2 the median seed-adjusted z-score was inactive: 0.322. With GGAAGACUCUUUUUAGAGATT against SLC25A20 the median seed-adjusted z-score was inactive: -0.183. For GGUAAAUCUUACAGAUAUATT against ZBTB25, the median seed-adjusted z-score was inactive: 0. In the case of CAAGCGCAAGAGACACUGATT against ALPL, the median seed-adjusted z-score is reported as inactive: -0.229. In the case of CCCUGGAUCUGUUCAGACATT against SLC22A13, the median seed-adjusted z-score is reported as inactive: 0.904. In the case of CCAUUCUGGUGGACCUGGATT against TUBB3, the median seed-adjusted z-score is reported as inactive: 0.208. In the case of GCACCAGCAUCGUUGUAGATT against CYP4B1, the median seed-adjusted z-score is reported as inactive: -0.663. For CGAUCAACCAAACUCAUUATT against ATP6V1C2, the median seed-adjusted z-score was inactive: 0.2. With CCUGGGCUAUGCAACAAAATT against HAS2 the median seed-adjusted z-score was inactive: 0.354. With GGACAAAUAAUGUAUUUGATT against GSPT1 the median seed-adjusted z-score was inactive: -0.761. For GAGCCUCAGUCACCUCAAATT against PLAGL1, the median seed-adjusted z-score was inactive: 0.0885. With GCUCCGCCUUGGGAAAACATT against APOA1 the median seed-adjusted z-score was inactive: -0.239. In the case of GGACACCAAUAGAGACGGATT against NCALD, the median seed-adjusted z-score is reported as inactive: 0. For CUUUGUCACUGCACCUAAATT against ACE2, the median seed-adjusted z-score was inactive: -0.164. In the case of GCCUUAAUCCCAAAACGAATT against TBX5, the median seed-adjusted z-score is reported as inactive: 0.143. In the case of GAUUCUAUCCAAAUUCCAATT against DMD, the median seed-adjusted z-score is reported as inactive: -0.626. In the case of GGGCGAGUAUUAUGACUAUTT against MYO15A, the median seed-adjusted z-score is reported as inactive: 0.0508. In the case of CCAAGAAGAUGGAUGAGUATT against AHCYL2, the median seed-adjusted z-score is reported as inactive: 0.415. In the case of CAACCUCUGUCAGUAGUCUTT against ZFAND6, the median seed-adjusted z-score is reported as inactive: -0.181. With GACCACAACUUCUUCAGUATT against DHFRL1 the median seed-adjusted z-score was inactive: -0.646. With GGUGUUCGAUGGAGAUGAATT against SMOC1 the median seed-adjusted z-score was inactive: 0.0453. For GCGCAGACGUGAUUGUCAATT against DAO, the median seed-adjusted z-score was inactive: -0.00887. In the case of GCGUGUACACUGAGGAAUATT against MYO19, the median seed-adjusted z-score is reported as inactive: 0.0987. In the case of GGUUCGGAACAGCAAUAUATT against WWP1, the median seed-adjusted z-score is reported as inactive: -0.442. In the case of CCACUGCAAUCGUGUUAUATT against LIMS1, the median seed-adjusted z-score is reported as inactive: -0.313. For CACUAAACAUCGAAUAAGATT against ZNF616, the median seed-adjusted z-score was inactive: -0.0874. For GAUUGUGGAUGUAAUAGGATT against PRKAR2A, the median seed-adjusted z-score was inactive: 0.213. For ACAAGUAUGUGAACAUGCATT against NDUFS8, the median seed-adjusted z-score was inactive: -0.467. In the case of AGAUGAAUGUGAAGGUGCUTT against MYL6, the median seed-adjusted z-score is reported as inactive: -0.228. With GCCGUGCUGAUGGAGAGUATT against MFAP4 the median seed-adjusted z-score was inactive: -0.28. For GAUCUUCGGUGAAUCAGAATT against MRC2, the median seed-adjusted z-score was active: -1.34. In the case of CAGAUAUUCCAAAAGGCUATT against TXNL1, the median seed-adjusted z-score is reported as inactive: -0.554. With CUCAACCUUUCAUCCUUUATT against PCGF3 the median seed-adjusted z-score was inactive: 0.876. For GUACUUAUAUGAACGUAUUTT against CHD8, the median seed-adjusted z-score was inactive: -0.158. In the case of GAUCAACUCAACUUACUGATT against ZNF561, the median seed-adjusted z-score is reported as inactive: -0.00904. In the case of GUGCAUCCGUACUCCCAAATT against CTGF, the median seed-adjusted z-score is reported as inactive: -0.181. With GAACGUGCAGGGUGAUUAUTT against ASS1 the median seed-adjusted z-score was inactive: 0.0886. For GUUUCGAAAUUCAUCUGUUTT against CUTC, the median seed-adjusted z-score was inactive: -0.377. In the case of GGAACUUACGAUGCAGGAATT against GALNT13, the median seed-adjusted z-score is reported as inactive: -0.0149. For GAAGAACCCUGGUCUUUCATT against CARD14, the median seed-adjusted z-score was inactive: -0.104. In the case of GCUUCAUGAUUGUAUCCAATT against GCLM, the median seed-adjusted z-score is reported as inactive: 0.0509. In the case of CGGUCUUGGUUAUCCUCAUTT against KCNA5, the median seed-adjusted z-score is reported as inactive: 0.206. With UGGGUGCUGUGAUAAACAATT against SLC1A3 the median seed-adjusted z-score was inactive: -0.421. In the case of GCACAUUGAUCUUACCCAATT against CYP2U1, the median seed-adjusted z-score is reported as inactive: 0.144. In the case of GGUAUUCCUGUUCAACAAATT against ZNF235, the median seed-adjusted z-score is reported as inactive: 0.348. In the case of CCAGUACAGGUGGAUCUAATT against MED1, the median seed-adjusted z-score is reported as inactive: -0.855. In the case of GAGCUUCACUCAAAAAUCATT against ZNF160, the median seed-adjusted z-score is reported as inactive: -0.454. For GAAGCGACUGUUUUAGAAATT against EIF4E3, the median seed-adjusted z-score was inactive: 0. With GGUCGUAGGUUCUUAAGAATT against IMP3 the median seed-adjusted z-score was inactive: 0.0239.
